# Some of these results come from one statement about several compounds together. At least one compound was matched to its structure with a doubt left.
# System: H1N1 influenza virus
# Assay type: cell-based
# Conditions: HMO at 10 mg/mL; MDCK cells; FIG. 1
structure (smiles),measurement,value
"CC(=O)N[C@H]1[C@H]([C@H](O)[C@H](O)CO)O[C@@](O[C@H]2[C@@H](O)[C@@H](CO)O[C@@H](O[C@H]3[C@H](O)[C@@H](O)C(O)O[C@@H]3CO)[C@@H]2O)(C(=O)O)C[C@@H]1O (stereo partly shown) [3′SL, 3′-sialyllactose]",inhibition of H1N1 virus infectivity,greater than 90%

# — patent publication US11464793B2, “Nutritional formulations including human milk oligosaccharides and antioxidants and uses thereof” (priority 2010, dated 2022)
